The source of these data is the supplement of paper PMC10032668.

By UniProt entry, the sequences of proteins in these tests, tags left out.
AURKB, Q96GD4, UniProt Q96GD4, whole entry: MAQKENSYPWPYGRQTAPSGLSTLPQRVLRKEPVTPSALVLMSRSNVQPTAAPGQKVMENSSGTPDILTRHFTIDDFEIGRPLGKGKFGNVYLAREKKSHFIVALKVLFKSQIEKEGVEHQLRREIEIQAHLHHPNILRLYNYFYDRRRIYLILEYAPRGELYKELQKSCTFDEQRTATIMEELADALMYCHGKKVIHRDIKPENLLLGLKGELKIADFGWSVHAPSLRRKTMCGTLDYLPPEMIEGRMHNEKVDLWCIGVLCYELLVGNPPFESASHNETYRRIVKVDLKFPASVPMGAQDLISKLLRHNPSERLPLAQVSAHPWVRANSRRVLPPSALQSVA
EXOSC3, Q9NQT5, UniProt Q9NQT5, whole entry: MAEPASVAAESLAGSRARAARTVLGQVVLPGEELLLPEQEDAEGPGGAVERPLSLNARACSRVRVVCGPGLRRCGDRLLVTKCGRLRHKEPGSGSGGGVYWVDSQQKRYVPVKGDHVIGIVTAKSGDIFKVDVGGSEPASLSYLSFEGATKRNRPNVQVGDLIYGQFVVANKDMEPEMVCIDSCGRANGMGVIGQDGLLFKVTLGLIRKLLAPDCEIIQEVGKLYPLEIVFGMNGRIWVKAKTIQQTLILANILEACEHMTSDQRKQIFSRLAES
NELFA, Q9H3P2, UniProt Q9H3P2, whole entry: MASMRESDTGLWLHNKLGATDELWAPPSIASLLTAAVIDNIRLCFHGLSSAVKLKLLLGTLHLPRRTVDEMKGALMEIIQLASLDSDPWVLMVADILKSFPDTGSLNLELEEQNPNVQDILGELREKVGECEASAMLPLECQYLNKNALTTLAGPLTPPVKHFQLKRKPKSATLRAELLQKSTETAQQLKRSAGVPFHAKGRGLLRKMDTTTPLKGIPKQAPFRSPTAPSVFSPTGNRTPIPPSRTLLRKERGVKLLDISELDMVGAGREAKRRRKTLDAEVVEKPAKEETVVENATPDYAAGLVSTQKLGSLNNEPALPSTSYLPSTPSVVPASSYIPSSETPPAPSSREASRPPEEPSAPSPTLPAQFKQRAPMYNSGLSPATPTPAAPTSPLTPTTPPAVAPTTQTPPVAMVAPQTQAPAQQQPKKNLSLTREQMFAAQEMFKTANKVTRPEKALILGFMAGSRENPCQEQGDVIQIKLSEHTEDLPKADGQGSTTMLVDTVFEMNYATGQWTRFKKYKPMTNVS
PDHA1, P08559, UniProt P08559, whole entry: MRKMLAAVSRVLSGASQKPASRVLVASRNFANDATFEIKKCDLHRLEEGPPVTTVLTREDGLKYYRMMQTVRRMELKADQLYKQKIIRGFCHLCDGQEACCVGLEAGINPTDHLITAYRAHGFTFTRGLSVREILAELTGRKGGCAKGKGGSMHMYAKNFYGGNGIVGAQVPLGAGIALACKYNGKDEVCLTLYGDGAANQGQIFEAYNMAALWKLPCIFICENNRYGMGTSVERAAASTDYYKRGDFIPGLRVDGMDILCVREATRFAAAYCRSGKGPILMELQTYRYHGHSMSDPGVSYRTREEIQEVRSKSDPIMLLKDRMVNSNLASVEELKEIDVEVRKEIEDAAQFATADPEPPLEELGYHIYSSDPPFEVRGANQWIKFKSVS
ATP6V1D, Q9Y5K8, UniProt Q9Y5K8, whole entry: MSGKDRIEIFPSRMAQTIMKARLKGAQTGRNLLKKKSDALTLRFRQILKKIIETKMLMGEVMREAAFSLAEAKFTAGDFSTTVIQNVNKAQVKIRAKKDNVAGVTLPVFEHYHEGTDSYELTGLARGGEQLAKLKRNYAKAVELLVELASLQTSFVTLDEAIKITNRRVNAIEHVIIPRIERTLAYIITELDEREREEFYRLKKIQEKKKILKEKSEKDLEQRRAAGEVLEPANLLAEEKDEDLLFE
SEC61A1, P61619, UniProt P61619, whole entry: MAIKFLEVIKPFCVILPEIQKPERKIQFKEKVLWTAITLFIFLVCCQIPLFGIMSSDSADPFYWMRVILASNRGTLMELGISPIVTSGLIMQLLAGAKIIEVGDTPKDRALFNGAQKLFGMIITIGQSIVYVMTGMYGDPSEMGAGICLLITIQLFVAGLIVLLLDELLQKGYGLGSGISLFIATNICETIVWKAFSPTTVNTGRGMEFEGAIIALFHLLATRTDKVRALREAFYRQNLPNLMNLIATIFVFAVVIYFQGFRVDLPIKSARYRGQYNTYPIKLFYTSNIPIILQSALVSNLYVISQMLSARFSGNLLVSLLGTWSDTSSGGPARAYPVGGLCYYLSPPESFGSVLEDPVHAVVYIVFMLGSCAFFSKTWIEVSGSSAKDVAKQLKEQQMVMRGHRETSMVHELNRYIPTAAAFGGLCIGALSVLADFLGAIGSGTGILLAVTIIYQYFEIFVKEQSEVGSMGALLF
MORF4L2, Q15014, UniProt Q15014, whole entry: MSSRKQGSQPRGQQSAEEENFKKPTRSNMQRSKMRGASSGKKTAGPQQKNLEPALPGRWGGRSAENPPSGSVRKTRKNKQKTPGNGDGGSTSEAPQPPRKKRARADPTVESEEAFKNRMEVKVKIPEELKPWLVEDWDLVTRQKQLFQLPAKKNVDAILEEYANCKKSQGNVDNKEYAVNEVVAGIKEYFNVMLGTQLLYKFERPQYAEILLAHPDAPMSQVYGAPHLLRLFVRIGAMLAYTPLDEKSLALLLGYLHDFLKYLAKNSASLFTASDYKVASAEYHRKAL
NDUFA10, O95299, UniProt O95299, whole entry: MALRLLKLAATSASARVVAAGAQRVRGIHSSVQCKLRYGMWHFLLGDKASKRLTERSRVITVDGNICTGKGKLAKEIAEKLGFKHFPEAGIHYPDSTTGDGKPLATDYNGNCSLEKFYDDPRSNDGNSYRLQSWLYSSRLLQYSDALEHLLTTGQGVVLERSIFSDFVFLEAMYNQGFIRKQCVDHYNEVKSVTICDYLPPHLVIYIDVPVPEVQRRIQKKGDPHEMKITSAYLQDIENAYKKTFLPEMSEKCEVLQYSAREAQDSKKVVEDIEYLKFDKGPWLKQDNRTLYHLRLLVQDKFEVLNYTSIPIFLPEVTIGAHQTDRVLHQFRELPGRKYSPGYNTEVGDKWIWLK

This is one part of the list. The list holds hits alone, and they repeat only in part.

What all share (assay): PRISMA enrichment of interactor (LFQ) in peptide spot vs all other peptide spots (log2 fold change); higher = stronger / more specific binding of the interactor to the peptide
One assay deals with AURKB, Q96GD4. Here is the method:
(§1)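 PRISMA: 221 full-length sORF-encoded peptides (3-15 aa), plus SOS1/GLUT1 control peptides, were spot-synthesized on cellulose membranes in triplicate. Membranes were incubated with HEK293T lysate, and bound proteins were identified by LC-MS/MS with LFQ. Enrichment is the log2 fold change versus all other peptide spots; only significant interactors are listed (cutoff c=6, x0=2.8).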

The next assay concerns the target CHCHD1, Q96BP2. How it is done: as §1
Another assay deals with EXOSC3, Q9NQT5. Here is the method:
as §1

Another assay concerns the target FAM53C, Q9NYF3. Here is the method:
as §1

Another assay concerns the target GPS1, Q13098. How it is done: as §1
For a further assay, the target named is HERC5, Q9UII4. How it is done:
as §1

The next assay deals with MCU, Q8NE86. How it is done:
as §1

The target of a further assay is NELFA, Q9H3P2. How it is done:
as §1

Another assay has as its target PDHA1, P08559. Here is the method: as §1
The target of a further assay is POLD1, P28340. Here is the method: as §1
The next assay addresses UBR4, Q5T4S7. Here is the method:
as §1

For a further assay, the target named is ZBTB10, Q96DT7. How it is done: as §1
The target of a further assay is ATP6V1D, Q9Y5K8. How it is done:
as §1

The target in a further assay is MEMO1, Q9Y316. Here is the method:
as §1

In another assay the target is NEK7, Q8TDX7. How it is done: as §1
In the next assay the target is SEC61A1, P61619. Here is the method: as §1
The next assay deals with BCKDK, O14874. Here is the method: as §1
The target in a further assay is CCDC137, Q6PK04. How it is done: as §1
For a further assay, the target named is CLYBL, Q8N0X4. Here is the method:
as §1

A further assay has as its target CSNK1A1, P48729. How it is done:
as §1

The target in the next assay is CSNK1E, P49674. Here is the method: as §1
A further assay concerns the target DDX47, Q9H0S4. How it is done:
as §1

In the next assay the target is EMG1, Q92979. How it is done:
as §1

Another assay has as its target IBA57, Q5T440. Here is the method:
as §1

A further assay concerns the target MCAT, Q8IVS2. How it is done: as §1
The target of a further assay is MORF4L2, Q15014. Here is the method: as §1
A further assay has as its target SPTSSA, Q969W0. Here is the method: as §1
The target in another assay is ZNF768, Q9H5H4. Here is the method: as §1
A further assay deals with ASH2L. Here is the method:
as §1

Another assay addresses DDX23, Q9BUQ8. How it is done: as §1
In the next assay the target is DNAJB4, Q9UDY4. Here is the method: as §1
For the next assay, the target named is GARS, P41250. How it is done:
as §1

The next assay concerns the target NDUFA10, O95299. How it is done: as §1

For MSKNSVTVLPWSLQ [P2RY14], the “PRISMA enrichment of interactor (log2)” value in the assay with AURKB, Q96GD4 was found to be 5.4; with CHCHD1, Q96BP2 it was 8.48; with EXOSC3, Q9NQT5, 5.75; with FAM53C, Q9NYF3, 5.53; with GPS1, Q13098 it was 4.76; with HERC5, Q9UII4, 5.57. The “PRISMA enrichment of interactor (log2)” value with MCU, Q8NE86 was found to be 6.97; in the assay with NELFA, Q9H3P2, 3.95; with PDHA1, P08559 it was 4.91; in the assay with POLD1, P28340 it was 5.49; with UBR4, Q5T4S7 it was 6.82; in the assay with ZBTB10, Q96DT7 it was 5.
Turning to MSMIGCDFRS [HUWE1], the “PRISMA enrichment of interactor (log2)” value with ATP6V1D, Q9Y5K8 was found to be 5.95; with MEMO1, Q9Y316, 4.84; with NEK7, Q8TDX7 it was 5.04; with SEC61A1, P61619, 10.1.
On to MARLARDEWND [BFAR], for which the “PRISMA enrichment of interactor (log2)” value with BCKDK, O14874 came to 8.47; with CCDC137, Q6PK04 it was 5.82; with CLYBL, Q8N0X4 it was 5.42; with CSNK1A1, P48729, 7.85; with CSNK1E, P49674, 6.78; with DDX47, Q9H0S4, 4.61. For the same molecule, the “PRISMA enrichment of interactor (log2)” value with EMG1, Q92979 was determined as 5.54; in the assay with IBA57, Q5T440, 5.2; with MCAT, Q8IVS2, 4.42; with MORF4L2, Q15014, 6.67; with SPTSSA, Q969W0, 7.3; with ZNF768, Q9H5H4 it was 5.21.
Regarding MEPGLQGK [FGFR1], the “PRISMA enrichment of interactor (log2)” value with ASH2L is 4.13; with DDX23, Q9BUQ8, 6.58; with DNAJB4, Q9UDY4, 4.67; with GARS, P41250, 6.21; in the assay with NDUFA10, O95299 it was 6.37.
